Assay results from US20030073218A1, “High affinity inhibitors for target validation and uses thereof” (Princeton University, priority 1999, published 2003).
Some results were stated once for a whole list of compounds, not compound by compound. At least one compound was matched to its structure with a doubt left.

Protein sequences, listed by entry. Tags and fused reporters are not part of them. Residues count along the entry.
UniProt P06241, 1-534 isoform P06241-2, species assumed: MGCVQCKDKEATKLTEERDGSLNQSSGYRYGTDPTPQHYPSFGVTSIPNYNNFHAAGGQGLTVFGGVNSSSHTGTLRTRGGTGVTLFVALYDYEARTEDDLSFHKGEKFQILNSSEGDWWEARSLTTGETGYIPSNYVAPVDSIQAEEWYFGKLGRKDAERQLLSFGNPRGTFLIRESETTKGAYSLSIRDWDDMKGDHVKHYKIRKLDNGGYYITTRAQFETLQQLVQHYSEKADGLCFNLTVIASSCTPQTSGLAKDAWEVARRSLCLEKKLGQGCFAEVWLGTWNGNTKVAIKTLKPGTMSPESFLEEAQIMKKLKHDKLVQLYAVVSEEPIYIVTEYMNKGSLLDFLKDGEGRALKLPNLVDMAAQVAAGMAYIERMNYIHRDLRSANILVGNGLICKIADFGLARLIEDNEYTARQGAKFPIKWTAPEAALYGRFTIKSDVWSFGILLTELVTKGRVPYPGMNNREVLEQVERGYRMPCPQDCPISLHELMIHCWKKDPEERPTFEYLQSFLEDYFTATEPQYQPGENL

Target: wild-type Fyn (Homo sapiens, UniProt P06241)
Assay: Peptide phosphorylation assay, screening of inhibitors orthogonal to wild-type kinases
Type: biochemical
Conditions: read-out: IC50 for inhibition of wild-type Fyn
From the text: Screening of inhibitors which are orthogonal to wild-type kinases: To identify compounds that would not inhibit any existing cellular kinases, the panel of synthetic pyrazolo pyrimidine analogs (1-6) (FIG. 10) were screened against two closely related purified protein tyrosine kinases, v-Src and Fyn, in a peptide phosphorylation assay using [γ-^32P]

CC(C)(C)n1nc(-c2ccccc2)c2c(NC(=O)C3CCCC3)ncnc21 [Compound 3b, 4-cyclopentylamido-1-tert-butyl-3-phenylpyrazolo[3,4-d]pyrimidine]
IC50: > 400 µM
